According to article doi:10.1101/2023.01.07.523072:
These are yes or no findings as the source states them, for the method shown. In cells and extracts the contact can be indirect. For part of these data: A result given as binding can be weak or reduced; the word gives no strength. For part of these data: Where a sequence is shown, tags or fusion partners need not be part of it.

Sequences of proteins named here, by UniProt entry; tags and fusion partners are left off. A change or cut given only in a name is not applied to a line headed by its entry.
UniProt P82874: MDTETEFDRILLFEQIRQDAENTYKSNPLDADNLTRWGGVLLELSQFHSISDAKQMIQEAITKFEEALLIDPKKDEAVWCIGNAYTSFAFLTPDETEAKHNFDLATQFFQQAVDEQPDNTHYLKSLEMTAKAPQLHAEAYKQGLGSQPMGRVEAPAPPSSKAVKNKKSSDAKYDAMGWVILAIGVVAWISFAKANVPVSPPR
UniProt P54609: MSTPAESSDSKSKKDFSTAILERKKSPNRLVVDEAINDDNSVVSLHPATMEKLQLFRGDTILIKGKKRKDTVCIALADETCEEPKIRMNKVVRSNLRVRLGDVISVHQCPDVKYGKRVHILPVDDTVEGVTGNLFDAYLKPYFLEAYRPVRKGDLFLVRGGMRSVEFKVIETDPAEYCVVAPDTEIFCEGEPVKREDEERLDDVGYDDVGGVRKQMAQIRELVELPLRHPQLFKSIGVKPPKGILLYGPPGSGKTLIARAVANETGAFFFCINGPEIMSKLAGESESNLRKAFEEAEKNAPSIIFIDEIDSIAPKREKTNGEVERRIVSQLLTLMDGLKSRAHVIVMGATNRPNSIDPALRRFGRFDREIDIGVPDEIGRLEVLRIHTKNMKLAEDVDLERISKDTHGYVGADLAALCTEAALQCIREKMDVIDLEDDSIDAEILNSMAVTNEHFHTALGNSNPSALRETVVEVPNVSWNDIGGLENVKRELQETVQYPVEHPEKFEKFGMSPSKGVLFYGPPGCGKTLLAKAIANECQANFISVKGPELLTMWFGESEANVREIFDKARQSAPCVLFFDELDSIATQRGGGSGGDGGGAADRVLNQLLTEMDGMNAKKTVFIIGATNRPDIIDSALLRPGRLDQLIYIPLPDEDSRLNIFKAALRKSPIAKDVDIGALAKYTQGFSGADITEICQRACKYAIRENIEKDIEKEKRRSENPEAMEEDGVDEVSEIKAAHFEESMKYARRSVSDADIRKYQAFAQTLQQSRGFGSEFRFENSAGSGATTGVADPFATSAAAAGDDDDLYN
UniProt O48726: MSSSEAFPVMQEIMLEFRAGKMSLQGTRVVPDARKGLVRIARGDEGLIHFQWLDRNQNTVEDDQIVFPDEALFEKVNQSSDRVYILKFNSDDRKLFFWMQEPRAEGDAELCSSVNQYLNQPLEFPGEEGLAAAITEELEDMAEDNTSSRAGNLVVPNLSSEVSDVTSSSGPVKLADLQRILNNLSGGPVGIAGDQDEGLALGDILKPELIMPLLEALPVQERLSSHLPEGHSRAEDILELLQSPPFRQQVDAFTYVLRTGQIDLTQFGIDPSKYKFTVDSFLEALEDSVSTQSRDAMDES
UniProt Q9SGW3: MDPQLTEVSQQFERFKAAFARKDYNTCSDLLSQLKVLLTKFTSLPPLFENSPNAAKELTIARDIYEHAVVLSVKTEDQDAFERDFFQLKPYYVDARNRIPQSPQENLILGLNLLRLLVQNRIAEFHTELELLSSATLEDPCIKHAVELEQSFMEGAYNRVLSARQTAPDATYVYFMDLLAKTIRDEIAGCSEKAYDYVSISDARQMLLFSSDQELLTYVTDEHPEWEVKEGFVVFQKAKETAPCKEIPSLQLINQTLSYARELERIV

How the values were obtained:
Experiment in all cases: split reporter
[1] = biological target: TMD-truncated Toc33, BiFC fusion (Arabidopsis thaliana) (UniProt O23680)
[2] = biological target: T1, nY-Toc33 (Arabidopsis thaliana) (UniProt O23680)
T1 sequence: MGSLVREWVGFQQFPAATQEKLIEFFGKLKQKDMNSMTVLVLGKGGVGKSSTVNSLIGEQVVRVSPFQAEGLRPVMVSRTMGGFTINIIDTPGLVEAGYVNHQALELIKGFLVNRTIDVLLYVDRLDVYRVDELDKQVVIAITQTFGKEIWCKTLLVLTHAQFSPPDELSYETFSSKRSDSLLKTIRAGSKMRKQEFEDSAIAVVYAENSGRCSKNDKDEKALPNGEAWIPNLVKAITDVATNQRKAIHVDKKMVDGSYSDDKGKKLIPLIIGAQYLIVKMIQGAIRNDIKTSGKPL

[3] = biological target: nY-Tom20-3 (Arabidopsis thaliana) (UniProt P82874)
[4] = biological target: T2, nY-Tom20-2 (Arabidopsis thaliana) (UniProt P82873)
T2 sequence: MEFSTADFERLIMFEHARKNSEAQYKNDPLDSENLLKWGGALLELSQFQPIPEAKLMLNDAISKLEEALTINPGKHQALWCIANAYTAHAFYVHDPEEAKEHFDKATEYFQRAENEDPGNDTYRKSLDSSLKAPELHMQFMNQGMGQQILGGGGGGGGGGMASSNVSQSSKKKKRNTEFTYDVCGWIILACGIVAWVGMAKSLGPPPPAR

[5] = biological target: TMD-truncated Tom20-2, BiFC fusion (Arabidopsis thaliana) (UniProt P82873)
[6] = biological target: T3, nY-Toc34 (Arabidopsis thaliana) (UniProt Q38906)
T3 sequence: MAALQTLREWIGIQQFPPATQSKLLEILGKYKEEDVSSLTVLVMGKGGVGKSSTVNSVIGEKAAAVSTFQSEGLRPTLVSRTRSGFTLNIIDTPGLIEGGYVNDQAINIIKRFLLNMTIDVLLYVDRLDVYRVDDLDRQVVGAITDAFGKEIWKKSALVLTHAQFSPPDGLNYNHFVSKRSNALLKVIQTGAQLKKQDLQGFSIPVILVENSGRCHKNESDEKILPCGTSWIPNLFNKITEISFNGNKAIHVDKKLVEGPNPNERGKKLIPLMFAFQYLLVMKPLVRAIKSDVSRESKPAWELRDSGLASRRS

[7] = biological target: T4, nY-PAP2 (Arabidopsis thaliana) (UniProt Q9LMG7)
T4 sequence: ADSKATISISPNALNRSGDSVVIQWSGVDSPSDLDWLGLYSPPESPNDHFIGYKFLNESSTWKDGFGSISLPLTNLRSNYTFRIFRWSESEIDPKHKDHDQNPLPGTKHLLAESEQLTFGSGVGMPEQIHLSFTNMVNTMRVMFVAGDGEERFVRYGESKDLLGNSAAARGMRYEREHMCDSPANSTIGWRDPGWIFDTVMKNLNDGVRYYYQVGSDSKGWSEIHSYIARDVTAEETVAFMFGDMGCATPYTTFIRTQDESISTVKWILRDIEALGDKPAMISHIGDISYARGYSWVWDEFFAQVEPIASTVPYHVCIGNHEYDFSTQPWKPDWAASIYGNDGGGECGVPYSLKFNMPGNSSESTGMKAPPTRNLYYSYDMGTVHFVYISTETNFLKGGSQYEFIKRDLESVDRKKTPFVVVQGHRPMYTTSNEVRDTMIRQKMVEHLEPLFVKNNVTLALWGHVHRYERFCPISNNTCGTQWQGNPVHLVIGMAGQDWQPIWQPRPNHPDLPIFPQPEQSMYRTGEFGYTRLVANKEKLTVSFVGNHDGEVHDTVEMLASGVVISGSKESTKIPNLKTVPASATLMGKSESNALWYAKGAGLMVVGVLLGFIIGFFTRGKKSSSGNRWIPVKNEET

[8] = biological target: TMD-truncated PAP2, BiFC fusion (Arabidopsis thaliana) (UniProt Q9LMG7)
[9] = biological target: T5, nY-Tom20-4 (Arabidopsis thaliana) (UniProt P82805)
T5 sequence: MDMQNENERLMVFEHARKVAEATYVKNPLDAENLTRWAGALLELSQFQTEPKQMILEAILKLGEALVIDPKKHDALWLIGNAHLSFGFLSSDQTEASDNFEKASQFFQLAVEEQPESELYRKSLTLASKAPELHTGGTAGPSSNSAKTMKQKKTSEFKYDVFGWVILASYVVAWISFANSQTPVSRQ

[10] = biological target: TMD-truncated Tom20-4, BiFC fusion (Arabidopsis thaliana) (UniProt P82805)
[11] = biological target: TMD-truncated Toc34, BiFC fusion (Arabidopsis thaliana) (UniProt Q38906)
[12] = biological target: TMD-truncated Tom20-3, BiFC fusion (Arabidopsis thaliana) (UniProt P82874)
[13] = biological target: T6, SP2, BiFC fusion (Arabidopsis thaliana) (UniProt Q5PP51)
T6 sequence: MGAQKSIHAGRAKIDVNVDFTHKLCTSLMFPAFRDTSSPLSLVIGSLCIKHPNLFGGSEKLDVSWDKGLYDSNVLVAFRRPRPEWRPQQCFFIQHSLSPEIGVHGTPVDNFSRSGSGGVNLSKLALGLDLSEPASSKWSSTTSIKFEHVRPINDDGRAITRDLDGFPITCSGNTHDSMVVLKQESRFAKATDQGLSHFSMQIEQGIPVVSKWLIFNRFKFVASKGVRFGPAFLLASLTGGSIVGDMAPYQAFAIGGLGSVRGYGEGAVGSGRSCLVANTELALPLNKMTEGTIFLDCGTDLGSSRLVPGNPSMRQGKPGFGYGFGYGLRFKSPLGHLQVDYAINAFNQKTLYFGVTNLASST

[14] = biological target: CDC48A, BiFC fusion of Figure 5A (Arabidopsis thaliana) (UniProt P54609)
[15] = biological target: RPN13a, BiFC fusion (Arabidopsis thaliana) (UniProt O48726)
[16] = biological target: T7, RPN10, BiFC fusion (Arabidopsis thaliana) (UniProt P55034)
T7 sequence: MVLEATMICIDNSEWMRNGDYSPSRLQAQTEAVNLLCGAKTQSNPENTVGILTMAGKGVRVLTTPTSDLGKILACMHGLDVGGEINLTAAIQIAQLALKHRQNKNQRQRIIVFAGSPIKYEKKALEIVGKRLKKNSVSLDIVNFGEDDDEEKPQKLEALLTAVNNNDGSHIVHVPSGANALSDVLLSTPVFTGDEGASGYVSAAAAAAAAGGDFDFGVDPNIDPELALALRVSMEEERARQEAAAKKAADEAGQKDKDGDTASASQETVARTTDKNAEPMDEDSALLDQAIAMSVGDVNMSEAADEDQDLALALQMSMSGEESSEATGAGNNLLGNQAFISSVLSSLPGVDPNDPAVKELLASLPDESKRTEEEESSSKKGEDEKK

[17] = biological target: T8, REGULATORY PARTICLE NON-ATPASE6 (RPN6), BiFC fusion (Arabidopsis thaliana) (UniProt Q9LP45)
T8 sequence: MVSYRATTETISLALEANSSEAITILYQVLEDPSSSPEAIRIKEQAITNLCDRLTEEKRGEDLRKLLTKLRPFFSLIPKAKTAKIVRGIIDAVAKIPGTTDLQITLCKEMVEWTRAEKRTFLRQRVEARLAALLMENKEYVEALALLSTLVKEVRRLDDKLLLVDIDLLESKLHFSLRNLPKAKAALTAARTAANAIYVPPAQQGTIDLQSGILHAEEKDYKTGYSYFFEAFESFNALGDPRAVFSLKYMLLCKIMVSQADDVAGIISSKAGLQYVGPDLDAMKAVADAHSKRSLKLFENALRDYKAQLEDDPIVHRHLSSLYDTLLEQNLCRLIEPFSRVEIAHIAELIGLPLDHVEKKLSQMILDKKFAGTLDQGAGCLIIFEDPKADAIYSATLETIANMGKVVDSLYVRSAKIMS

[18] = biological target: RPN12, BiFC fusion (Arabidopsis thaliana) (UniProt Q9SGW3)
[19] = biological target: T9, SUPPRESSOR OF PPI1 LOCUS1 (SP1), BiFC fusion (Arabidopsis thaliana) (UniProt Q8L7N4)
T9 sequence: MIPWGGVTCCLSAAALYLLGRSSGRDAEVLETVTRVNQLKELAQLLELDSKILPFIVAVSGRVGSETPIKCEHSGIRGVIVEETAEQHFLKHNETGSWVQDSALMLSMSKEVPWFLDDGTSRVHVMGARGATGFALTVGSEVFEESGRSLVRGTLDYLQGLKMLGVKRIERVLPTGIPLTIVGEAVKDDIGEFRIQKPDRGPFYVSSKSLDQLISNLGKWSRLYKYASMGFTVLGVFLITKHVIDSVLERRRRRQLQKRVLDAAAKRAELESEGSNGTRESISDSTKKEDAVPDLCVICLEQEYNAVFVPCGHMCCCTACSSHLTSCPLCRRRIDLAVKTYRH

“cY-TTOP (TTOP fused to the C-terminal half of YFP, free C terminus) (from UniProt F4K1H0)” was tested, and the binding [1] was “no binding”, the binding [2] was “binds” and the binding [3] was “binds”. For the same substance, the binding [4] was “binds”, the binding [5] was “no binding” and the binding [6] was “binds”. For the same substance, the binding [7] was “binds”, the binding [8] was “no binding” and the binding [9] was “binds”. The binding [10] was “no binding”, the binding [11] was “no binding” and the binding [12] was “no binding”.
With “TTOP, BiFC fusion of Figure 5A (from UniProt F4K1H0)” the binding [13] was “no binding”, the binding [14] was “binds” and the binding [15] was “binds”. For the same substance, the binding [16] was “binds”, the binding [17] was “binds” and the binding [18] was “binds”. For the same substance, the binding [19] was “binds”.
With “TTOP fused to cY at its C terminus (Arabidopsis thaliana)” the binding [2] was “no binding”, the binding [4] was “no binding” and the binding [6] was “no binding”. For the same substance, the binding [7] was “no binding” and the binding [9] was “no binding”.
